This is an account of results in patent US20060034833A1 (published 2006).

In assay [1] the target is T1, human IFN-gamma (human, UniProt P01579 24-166).
T1 sequence (looked up): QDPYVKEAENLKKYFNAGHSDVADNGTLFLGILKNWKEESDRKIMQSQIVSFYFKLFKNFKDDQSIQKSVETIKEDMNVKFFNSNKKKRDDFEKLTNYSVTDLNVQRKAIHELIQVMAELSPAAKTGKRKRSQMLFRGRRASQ
The assay can be described thus: ELISA screening of selected clones on human IFN-γ (Examples 7 and 8).

The target of assay [2] is T1, human IFN-gamma. Nature of the assay: ELISA on human IFN-γ, Tx-114 treated and untreated purified VHH. For orientation: ELISA stands for enzyme-linked immunosorbent assay.

These are yes or no findings as the source states them, for the method shown. Some entries that bind do so weakly or less than the wild type.

B1: MP4E4BR (VHH)
VHH: QVQLQESGGGLVQAGGSLRLSCAASGRTFSIYNMGWFRQAPGKEREFVAAISWNGGSIYYTSSVEGRFTISRDNAINTVYLQMNSLKPEDTGVYYCASKGRPYGVPSPRQGEYDYWGQGTQVTVSS
For the molecule B1, the binding entry with human IFN-gamma [1] was “binds”.

B2: MP3B1SRA (VHH)
VHH: QVQLQESGGGLVQPGGSLRLSCAASGFTSSNYAMSWVRQAPGKGLEWVSSINSRTGSITYADSVKGRFTITLDNAKNTLYLQMNSLKPEDTAVYYCASRVDDRVSRGQGTQVTVSS
In the case of B2, the binding entry with human IFN-gamma [2] and with human IFN-gamma [1] was “binds” in each case.

B3: MP4C10SR (VHH)
VHH: QVQLQESGGGLVQPGGSLRLSCAASGFTVSNYAMSWVRQPPGKGIEWVSSINNRNDHITYADSVKGRFTIARDNANNILYLQMNSLKPEDTAVYYCASRVDDRVSRGQGTQVTVSS
Take B3: the binding entry in the assay with human IFN-gamma [2] and in the assay with human IFN-gamma [1] was “binds” throughout.

B4: MP3C5SR (VHH)
VHH: QVQLQESGGGLVQAGGSLRLSCAAAGISGSVFSRTPMGWYRQAPGKQRELVAGILTSGATSYAESVKGRFTISRDNAKNTVYLQMNSLSPEDTAEYYCNTYPTWVLSWGQGTQVTVSS
Take B4: in the assay with human IFN-gamma [1], the binding result was “binds”.

B5: MP3G8SR (VHH)
VHH: QVQLQESGGGLVQAGGSLRLSCAAAGISGSVFSRTPMGWYRQAPGKQRELVAGILSSGATAYAESVKGRFTISRDNAKNTVYLQMNSLSPEDTAEYYCNTYPTWVLSWGQGTQVTVSS
Take B5: the binding entry with human IFN-gamma [1] is “binds”.

B6: MP3C1SR (VHH)
VHH: QVQLQDSGGGLVQAGGSLRLSCAAAGISGSVFSRTPMGWYRQAPGKQRELVAGILSSGATVYAESVKGRFTISRDNAKNTVYLQMNSLSPEDTAEYYCNTYPTWVLSWGQGTQVTVSS
For B6, the binding entry with human IFN-gamma [2] and with human IFN-gamma [1] was “binds” in each case.

B7: MP3D2SRA (VHH)
VHH: QVQLQDSGGGTVQAGGSLRLSCAASGRTFSDYAVGWFRQAPGKEREFVARILWTGASRSYANSVDGRFTVSTDNAKNTVYLQMNSLKPEDTAIYYCAALPSNIITTDYLRVYYWGQGTQVTVSS
Consider B7, for which the binding result with human IFN-gamma [1] was “binds”.

B8: MP3D2BR (VHH)
VHH: QVQLQESGGGLVQPGESLRLSCAASRGIFRFNAGGWYRQAPGKQRELVAFIGVDNTTRYIDSVKGRFTISRDNAKTTVYLQMNSLQPEDTAVYYCNKVPYIDWGQGTQVTVSS
B8: the binding entry in the assay with human IFN-gamma [2] and in the assay with human IFN-gamma [1] was “binds” throughout.

B9: MP2F1BR (VHH)
VHH: AVQLVESGGGLVQTGDSLRLSCVASGGTFSRYAMGWFRQAPGKEREFVARIGYSGRSISYATSVEGRFAISRDNAKNTVYLQMNSLKPEDTAVYYCASLVSGTLYQADYWGQGTQVTVSS
Consider B9, for which the binding result with human IFN-gamma [2] and in the assay with human IFN-gamma [1] was “binds” throughout.

B10: MP2C5BR (VHH)
VHH: QVQLVESGGGLVQTGDSLRLSCVASGGTFSRYAMGWFRQPPGKERDFVARIGYSGQSISYATSVEGRFAISRDNAKNTVYLQMNSLKPEDTAVYYCASLVSGTLYKPNYWGQGTQVTVSS
Turning to B10, the binding entry in the assay with human IFN-gamma [1] is “binds”.

B11: MP2F6SR (VHH)
VHH: QVKLEESGGGLVQAGGSLRLSCAASGRTFNNYNMGWFRQAPGKEREFVAAISWNGGSTYYDDSVKGRFTISRDNANNLVYLQMNSLNFEDTAVYYCACAANPYGIPQYRENRYDFWGQGTQVTVSS
With B11, the binding result in the assay with human IFN-gamma [2] and in the assay with human IFN-gamma [1] was “binds” throughout.

B12: MP3D1BR (VHH)
VHH: QVQLQESGGGLVQAGGSLRLSCAASGRTFDNYNMGWFRQAPGKEREFVAAISWNGGSTYYDDSVKGRFTISRDNFQKLVYLQMNSLKLEDTAVYYCACAANPYGIPQYRENRYDFWGQGTQVTVSS
As for B12, the binding entry in the assay with human IFN-gamma [1] is “binds”.

B13: MP2C1BR (VHH)
VHH: QVKLEESGGRLVQAGGSLRLSCIASGRTISDYAAGWFRQAPGKEREFLASVSWGFGSTYYADSVKGRFTISRDTAKDTVYLQMNTLEPDDTSVYYCASSPRYCAGYRCYATASEFDSWGQGTQVTVSS
On to B13, for which, in the assay with human IFN-gamma [1], the binding entry is reported as “binds”.

B14: MP4A12SR (VHH)
VHH: QVQLQESGGRLVQAGGSLRLSCIASGRTISDYAAGWFRQAPGKEREFLASVTWGFGSTYYADSVKGRFTISRDKAKDTVYLQMNTLEPDDTSAYYCASSPRYCAGYRCYVTASEFDSWGPGTQVTVSS
With B14, the binding entry with human IFN-gamma [1] was “binds”.

B15: MP3F1SRA (VHH)
VHH: QVQLQESGGGLVQAGGSLTLSCVASGRTISDYAVGWFRQAPGKEREFVASISWGGGFTAFADSMKGRFTISRDNAKNTVYLQTHTLEPDDTSVYYCASSRRYCTGYRCYATASEFDSWGQGTQVTVSS
For B15, the binding entry with human IFN-gamma [2] and with human IFN-gamma [1] was “binds” each time.

B16: MP2F10SR (VHH)
VHH: QVQLVESGGGLVQAGGSLRLSCAASGRTISSFRMGWFRRAPGEEREFVAFVRSNGTSTYYADSVEGRFTITRDNAKNTVYLRMDSLKPEDTAVYYCAAATRDYGGSFDYWGQGTQVTVSS
On to B16, for which the binding result with human IFN-gamma [1] is on record as “binds”.

B17: MP3A7SRA (VHH)
VHH: QVQLQDSGGGLVQAGGSLRLSCAASGRTFSSFRMGWFRRAPGEEREFVAFVRSNGTSTYYADSVEGRFTITRDNAKNTVYLRMDSLKPEDTAVYYCAAATRDYGGSFDYWGQGTQVIVSS
On to B17, for which the binding entry with human IFN-gamma [2] and with human IFN-gamma [1] was “binds” in each case.

B18: MP3F4SRA (VHH)
VHH: QVQLQDSGGGLVQAGDSLRLSCAASGRSFSSYGMGWFRQAPGKEHEFVAGIWRSGVSLYYTDSVKGRFTISRDDAKMTVSLQMNSLKPEDTAVYYCAAEATFPTWSRGRFADYDYRGQGTQVTVSS
Take B18: the binding entry with human IFN-gamma [1] is given as “binds”.

B19: MP3E5BR (VHH)
VHH: QVQLQESGGGLVQAGDSLRLSCAASGRSFSSYGMGWFRQAPGKEHEFVAGIWRSGVSLYYADSVKGRFTISRDDAKMTVSLQMNGLKPEDTAVYYCAAEATFPTWNRGSFADYDYRGQGTQVTVSS
As to B19, the binding result with human IFN-gamma [1] is on record as “binds”.

B20: MP3D3BR (VHH)
VHH: QVQLQESGGGLVQAGDSLRLSCTASGRSFSSYGMGWFRQAPGKDHEFVAGIWRSGVSLYYADSVKGRFTISRDDAKMTVSLQMNGLKPEDTAVYYCAAEATFPTWNRGTFADYDYRGQGTQVTVSS
In the case of B20, the binding entry with human IFN-gamma [1] was “binds”.

B21: MP3C7SRA (VHH)
VHH: QVQLQESGGGLVQAGDSLRLSCAASGRSFSSYGMGWFRQAPGKEHEFVAGIWRSGVSLYYADSVKGRFTISRDDAKMTVSLQMNSLKPEDTAVYYCAAEATFPTWNRGRFADYDYSGQGTQVTVSS
In the case of B21, the binding entry with human IFN-gamma [2] and in the assay with human IFN-gamma [1] was “binds” each time.
